The text below walks through data of publication PMC7819943, “Rice protein-binding microarrays: a tool to detect cis-acting elements near promoter regions in rice”.

Protein sequences, listed by entry. Tags and fused reporters are not part of them.
UniProt Q0JBA9, entry or part of it: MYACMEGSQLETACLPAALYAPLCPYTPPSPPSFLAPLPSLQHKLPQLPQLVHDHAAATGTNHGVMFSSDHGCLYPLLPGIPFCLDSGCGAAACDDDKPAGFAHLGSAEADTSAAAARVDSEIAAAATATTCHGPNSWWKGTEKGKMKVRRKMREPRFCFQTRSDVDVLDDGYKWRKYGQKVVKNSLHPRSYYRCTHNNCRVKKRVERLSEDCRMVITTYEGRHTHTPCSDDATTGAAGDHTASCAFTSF

The list shows a part of the results.

This test has as its target OsWRKY34 (Oryza sativa, UniProt Q0JBA9 1-250). Nature of the test: protein-binding microarray (RPBM); PBS, 2% BSA, 51.3 ng/ul salmon testes DNA, 50 uM zinc acetate, 200 nM TF, 25 C, 1 h; high values mean tight binding. The settings on record: protein: recombinant; tags: N-terminal polyhistidine and DsRed monomer fusion (pET32a); label: CyDye5-dUTP incorporated in the synthesized complementary strand; 3' TTTTT single-stranded linker to array surface; dsDNA, one strand shown. The method, boiled down:
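Polyhistidine-tagged DsRed fusions of transcription factors, joined at the N-terminus, were expressed in E. coli BL21-CodonPlus and isolated on Ni–NTA. They were incubated at 200 nM for 1 h at 25 °C on a custom Agilent array, double-stranded and BSA-blocked, in PBS with 2% BSA, salmon testes DNA and 50 µM zinc acetate. The binding signal is per-feature fluorescence intensity (arbitrary units) read on an Axon 4000B scanner after washing.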
Regarding “ATTGGTGTTGGTTGGTACGCTGGTTGGTGACCATGCAGTTCGGAGTCACCTAGTGCAG”, the binding signal was 8320 fluorescence intensity (a.u.).
Under “GCCACCATTTTTTTCTTTTGCAATTTTTTTCCATCGTTATCGGAGTCACCTAGTGCAG” stands 14300 fluorescence intensity (a.u.).
Under “CGCCCATCGCCGCCACCGACCACTCCAACGCCGCCGCCGCCGGAGTCACCTAGTGCAG” stands 9180 fluorescence intensity (a.u.); under “AAGAGCACACACACCACGTTTCCTCCACCAATAAATTCCACGGAGTCACCTAGTGCAG”, 9340 fluorescence intensity (a.u.); under “TATGGTTTCCTCAAGGGTATTTTGGGCATTATGAATTTTACGGAGTCACCTAGTGCAG”, 10500 fluorescence intensity (a.u.).
Consider “ACTAGATTGCTGCTTCAACATCACTCATGTTTGCTCTTCGCGGAGTCACCTAGTGCAG”, for which the binding signal was 8740 fluorescence intensity (a.u.).
“GCCTTTGCCTTTGGCACCCGGCGCGCGTCCCGTCTCCCACCGGAGTCACCTAGTGCAG”: the binding signal was 8860 fluorescence intensity (a.u.).
As for “ATCCACGGTCACACACACTGGCTGGCACCGTCGCAGGCACCGGAGTCACCTAGTGCAG”, the binding signal was 8300 fluorescence intensity (a.u.).
The value for “CCGTCTGCCGGTGCCCTTCTAGCCGAGCTCTCACCGGCCGCGGAGTCACCTAGTGCAG” was 9600 fluorescence intensity (a.u.); that for “CATCATCATGTAGTTTTTTTTTACATCATCTAAAGGTTTTCGGAGTCACCTAGTGCAG” was 10500 fluorescence intensity (a.u.); that for “AGACGTATTCCTGTATCCGCCTATCCGTATCTTGGTATCACGGAGTCACCTAGTGCAG” was 8300 fluorescence intensity (a.u.).
In the case of “TCATCTTTTTATTGCTACTGGATTGCATATATTTCTTTACCGGAGTCACCTAGTGCAG”, the binding signal was 9550 fluorescence intensity (a.u.).
The value for “TATTAAGTCAACGGTTCATTTTGTTCAGTAATAATCATGGCGGAGTCACCTAGTGCAG” was 10100 fluorescence intensity (a.u.); that for “TCTCTACTAAACCTTGCGTTACAACTTACAACTTGTCCTCCGGAGTCACCTAGTGCAG” was 9300 fluorescence intensity (a.u.); that for “CTGTGAACCATTGATTTTTTTTACTATGAATTTTTTTGTTCGGAGTCACCTAGTGCAG” was 8040 fluorescence intensity (a.u.).
The value for “CCGTCTCCTCGCGAGTTCGATCGCCCACCGCCTGAGCCGACGGAGTCACCTAGTGCAG” was 8480 fluorescence intensity (a.u.); that for “GTCGTCGCCCAGTGCAATCTCGCAACCAATTTTCCACCGCCGGAGTCACCTAGTGCAG” was 9400 fluorescence intensity (a.u.); that for “CGCATTCTCCACGACTCCACTAGGCACACTTTTTTTTCTCCGGAGTCACCTAGTGCAG” was 10900 fluorescence intensity (a.u.).
Under “TGGATGTTTGGTGATGCACTAGGGTTTGATGGGAGATGGACGGAGTCACCTAGTGCAG” stands 10600 fluorescence intensity (a.u.); under “TCACCTGCCTCCCGCCGTCGAGATCACCCACGCCTGCTGTCGGAGTCACCTAGTGCAG”, 8140 fluorescence intensity (a.u.); under “AATCTATATTGTTTTTACATTTTCCATGTGGTTCGCATTCCGGAGTCACCTAGTGCAG”, 10100 fluorescence intensity (a.u.).
Take “ATGGGTCCCATTGCTCCTTTCCTGTTCCGTGCTTTGAGATCGGAGTCACCTAGTGCAG”: the binding signal is 8250 fluorescence intensity (a.u.).
The value for “GTACCATTAAAAAGTTTTTCGTGCCATCTGACATTCGCCGCGGAGTCACCTAGTGCAG” was 8430 fluorescence intensity (a.u.).
Under “TACCCATATACTATAGCATCAAATCATTGACCAGCATTTACGGAGTCACCTAGTGCAG” stands 8430 fluorescence intensity (a.u.); under “CTCTCACCTCACAAAAGTGCCCACGAAGAAGTGGTCAAAGCGGAGTCACCTAGTGCAG”, 8250 fluorescence intensity (a.u.); under “CTTCTAGAAGTTTCCGGGCGGGCGCGCTGCCCTCCAACGACGGAGTCACCTAGTGCAG”, 8260 fluorescence intensity (a.u.).
Regarding “GCCTAGAAGTATCGGCGACTTGTTTTTTTTGTTTGTTTTTCGGAGTCACCTAGTGCAG”, the binding signal was 12800 fluorescence intensity (a.u.).
The value for “AGGGGCCCACCCACCCAAAGTTGACCGCGATGTTACGATGCGGAGTCACCTAGTGCAG” was 8800 fluorescence intensity (a.u.).
For “TGTCATTTTCTCGTCGGCTTGCTTTGTTTGATTCCAGAGTCGGAGTCACCTAGTGCAG”, the binding signal is 9240 fluorescence intensity (a.u.).
On to “TAGCTGTCAGAAGTTCGATGGTTATTGGTTTTGTTGCTGCCGGAGTCACCTAGTGCAG”, for which the binding signal is 9890 fluorescence intensity (a.u.).
Under “CTCCGCTCGAGCCCCTCCGTTTTGATCCGATTCGCTCGCGCGGAGTCACCTAGTGCAG” stands 8110 fluorescence intensity (a.u.); under “TCGCTCTCGCCCGCCGTCGCCATGCTCGCCCGCCGCCGCTCGGAGTCACCTAGTGCAG”, 12800 fluorescence intensity (a.u.).
Under “ATTCCATCCTGTTCTGTCATCCGTTTACACTTAAACACTCCGGAGTCACCTAGTGCAG” stands 8860 fluorescence intensity (a.u.); under “AACCTTATGGTCAAATCTGTCAAACCCTTTTGTGCCATGTCGGAGTCACCTAGTGCAG”, 9730 fluorescence intensity (a.u.).
The value for “GAGTTCCATCGTTTCGTTTCGTTTCGCTTAGCGTATCCTTCGGAGTCACCTAGTGCAG” was 11900 fluorescence intensity (a.u.).
As to “GTCTGTGAATGTTTTATTTGCCTTGTCTGAACTATCTTTACGGAGTCACCTAGTGCAG”, the binding signal was 11400 fluorescence intensity (a.u.).
Under “CAGCTCGCGCCGCCGCCGCCGTCGCCGTCACTCTCCTCAGCGGAGTCACCTAGTGCAG” stands 9080 fluorescence intensity (a.u.).
Consider “TGCGCAAAAGGGATCATGGGGCAGGGGCAATGATGAAGCTCGGAGTCACCTAGTGCAG”, for which the binding signal is 9190 fluorescence intensity (a.u.).
For “CAACTCCTACTCGCGCCACTCCGCCACTGGCGCCTGGCTACGGAGTCACCTAGTGCAG”, the binding signal is 8100 fluorescence intensity (a.u.).
As for “ATGTGGGTCCCACGGGTTTTATTATTTTTCCGGGTCGAATCGGAGTCACCTAGTGCAG”, the binding signal was 8160 fluorescence intensity (a.u.).
The value for “CAGTTCATTCGGAGGATGGATTAGCTCCAGTCATGTATTCCGGAGTCACCTAGTGCAG” was 8240 fluorescence intensity (a.u.).
With “TGTGTCATGCCTTATATATTGTTGAGAATAAGTCTGTTTTCGGAGTCACCTAGTGCAG”, the binding signal is 10000 fluorescence intensity (a.u.).
